Results are given in words; binding and its absence hold for the method and conditions named. In cells and extracts the contact can be indirect. Some entries that bind do so weakly or less than the wild type.

The chains behind the UniProt entries cited, without tags or fusion partners.
UniProt P01106: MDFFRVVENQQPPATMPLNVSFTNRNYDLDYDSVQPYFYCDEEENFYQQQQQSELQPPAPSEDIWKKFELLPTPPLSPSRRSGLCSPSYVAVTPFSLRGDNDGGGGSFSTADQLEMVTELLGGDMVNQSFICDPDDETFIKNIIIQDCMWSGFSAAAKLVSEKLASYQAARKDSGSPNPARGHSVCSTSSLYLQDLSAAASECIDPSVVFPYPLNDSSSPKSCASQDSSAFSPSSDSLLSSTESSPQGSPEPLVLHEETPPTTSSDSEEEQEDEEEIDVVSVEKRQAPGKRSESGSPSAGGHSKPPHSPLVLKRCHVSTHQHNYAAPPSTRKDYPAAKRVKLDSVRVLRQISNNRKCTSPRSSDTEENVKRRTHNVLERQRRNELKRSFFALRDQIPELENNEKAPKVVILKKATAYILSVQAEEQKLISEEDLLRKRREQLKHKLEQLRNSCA
UniProt Q16665: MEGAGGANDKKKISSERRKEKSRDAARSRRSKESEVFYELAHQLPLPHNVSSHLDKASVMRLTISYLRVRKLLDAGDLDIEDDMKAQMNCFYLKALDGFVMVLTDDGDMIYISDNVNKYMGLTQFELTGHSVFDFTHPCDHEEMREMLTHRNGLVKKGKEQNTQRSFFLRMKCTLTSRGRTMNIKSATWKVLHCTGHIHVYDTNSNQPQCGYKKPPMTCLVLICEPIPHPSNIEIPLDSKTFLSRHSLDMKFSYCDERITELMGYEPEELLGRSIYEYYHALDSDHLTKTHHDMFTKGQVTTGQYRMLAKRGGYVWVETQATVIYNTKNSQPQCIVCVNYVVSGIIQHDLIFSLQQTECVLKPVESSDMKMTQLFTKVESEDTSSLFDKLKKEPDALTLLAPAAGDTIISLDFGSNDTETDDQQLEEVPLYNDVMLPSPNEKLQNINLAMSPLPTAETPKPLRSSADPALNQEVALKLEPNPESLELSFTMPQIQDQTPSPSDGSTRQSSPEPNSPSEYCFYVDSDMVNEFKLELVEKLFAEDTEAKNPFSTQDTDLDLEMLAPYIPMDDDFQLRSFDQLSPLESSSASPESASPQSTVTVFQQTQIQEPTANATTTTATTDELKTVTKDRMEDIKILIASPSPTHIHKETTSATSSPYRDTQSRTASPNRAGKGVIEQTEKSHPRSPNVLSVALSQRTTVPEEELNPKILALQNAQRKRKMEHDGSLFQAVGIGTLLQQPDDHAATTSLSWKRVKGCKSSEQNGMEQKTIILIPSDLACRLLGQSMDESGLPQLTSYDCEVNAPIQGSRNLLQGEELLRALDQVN

The assay concerns the target T1, FBX8 (human (endogenous in HT29)) (UniProt Q9NRD0).
T1 sequence: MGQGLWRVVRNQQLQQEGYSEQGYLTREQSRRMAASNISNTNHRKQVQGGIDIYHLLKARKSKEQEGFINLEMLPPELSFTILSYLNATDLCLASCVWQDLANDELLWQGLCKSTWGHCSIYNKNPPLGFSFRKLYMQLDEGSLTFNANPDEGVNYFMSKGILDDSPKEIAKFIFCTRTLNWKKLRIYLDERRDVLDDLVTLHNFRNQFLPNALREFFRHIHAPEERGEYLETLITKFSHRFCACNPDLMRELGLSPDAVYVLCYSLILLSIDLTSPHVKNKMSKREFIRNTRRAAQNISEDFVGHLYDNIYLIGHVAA
Kind of assay: co-IP; extracts of SW620, SW480 and HT29 cells precleared with IgG and protein A+G agarose (2 h, 4 °C); primary antibodies against FBX8, HIF-1α, CDK4 and C-Myc overnight at 4 °C; western blot. On the technique in general: In western blotting, separated proteins are transferred to a membrane and probed.

Regarding C-Myc (from UniProt P01106 1-454), the binding result is given as “binds”. As to HIF-1α (from UniProt Q16665 1-826), the binding entry is reported as “binds”.

The record behind these values is PMC7427987.
